The supplement of paper PMC4604168 (melanoma cell lines)
The list shows a part of the results. Many values rest on one well or one pass, so single values are uncertain.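 Imaging used 1,536-well plates; nuclei positive for cleaved PARP by antibody were divided by total DNA-stained nuclei to yield the apoptosis fraction. Doses for screening kept most cells viable, and cell lines differ markedly in resting and induced cleaved-PARP levels.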

Legend:
Assay in all cases: cleaved PARP positive nuclei fraction relative to DMSO control; melanoma cells; higher = more apoptosis
Details in all cases: library dose: low library concentration; 72 h
[1] = system: MZ2-MEL
[2] = system: MeWo
[3] = system: RPMI7951
[4] = system: RVH-421
[5] = system: SkMel28
[6] = system: SkMel2
[7] = system: SkMel30
[8] = system: SkMel5
[9] = system: UACC257
[10] = system: UACC62
[11] = system: WM115
[12] = system: WM1716
[13] = system: WM1745
[14] = system: WM3526
[15] = system: WM3619
[16] = system: WM451Lu

| Compound | cleaved PARP positive nuclei fraction [1] [%] | cleaved PARP positive nuclei fraction [2] [%] | cleaved PARP positive nuclei fraction [3] [%] | cleaved PARP positive nuclei fraction [4] [%] | cleaved PARP positive nuclei fraction [5] [%] | cleaved PARP positive nuclei fraction [6] [%] | cleaved PARP positive nuclei fraction [7] [%] | cleaved PARP positive nuclei fraction [8] [%] | cleaved PARP positive nuclei fraction [9] [%] | cleaved PARP positive nuclei fraction [10] [%] | cleaved PARP positive nuclei fraction [11] [%] | cleaved PARP positive nuclei fraction [12] [%] | cleaved PARP positive nuclei fraction [13] [%] | cleaved PARP positive nuclei fraction [14] [%] | cleaved PARP positive nuclei fraction [15] [%] | cleaved PARP positive nuclei fraction [16] [%] |
| --- | --- | --- | --- | --- | --- | --- | --- | --- | --- | --- | --- | --- | --- | --- | --- | --- |
| N.N.[Cl][Pt][Cl] [cisplatin] + Cc1ccc(NC(=O)c2cccc(N(C)C)c2)cc1NC(=O)c1ccc(O)cc1 [ZM336372] (first compound 1.6 µM, partner dose 2 µM) | 122 | 65 | 81.8 | 44.8 | 55.4 | 29.4 | 79.8 | 133 | 94.6 | 137 | 109 | 102 | 116 | 57.9 | 124 | 57.3 |
| Cn1cc(C2=C(c3cn(C4CCN(Cc5ccccn5)CC4)c4ccccc34)C(=O)NC2=O)c2ccccc21 [Enzastaurin] + Oc1nc(-c2ccc(C(F)(F)F)cc2)nc2c1CSCC2 [XAV939] (first compound 0.8 µM, partner dose 2 µM) | 179 | 62.4 | 151 | 62.2 | 155 | 129 | 295 | 86.4 | 90.6 | 87.8 | 38.1 | 217 | 196 | 86.3 | 95.7 | 121 |
| Cn1cc(C2=C(c3cn(C4CCN(Cc5ccccn5)CC4)c4ccccc34)C(=O)NC2=O)c2ccccc21 [Enzastaurin] + CCN(CC)CCCCNc1ncc2cc(-c3cc(OC)cc(OC)c3)c(NC(=O)NC(C)(C)C)nc2n1 [PD173074] (first compound 0.8 µM, partner dose 0.1 µM) | 154 | 74.5 | 74.4 | 90.2 | 117 | 262 | 89.7 | 79.7 | 106 | 75.1 | 41.8 | 92.1 | 106 | 72.4 | 112 | 91.3 |
| CCCS(=O)(=O)Nc1ccc(F)c(C(=O)c2c[nH]c3ncc(Cl)cc23)c1F + O=C(Oc1ccc([N+](=O)[O-])cc1)N1CCC(C(O)(c2ccc3c(c2)OCO3)c2ccc3c(c2)OCO3)CC1 [JZL184] (first compound 0.08 µM, partner dose 1 µM) | 57.9 | 43.7 | 27.5 | 120 | 246 | 30.2 | 41.3 | 69.5 | 140 | 219 | 164 | 49.6 | 79.9 | 144 | 93.8 | 42.7 |
| CN1CCN(c2ccc3nc(-c4c(N)c5c(F)cccc5[nH]c4=O)[nH]c3c2)CC1 [Dovitinib] + O=C(Oc1ccc([N+](=O)[O-])cc1)N1CCC(C(O)(c2ccc3c(c2)OCO3)c2ccc3c(c2)OCO3)CC1 [JZL184] (first compound 0.1 µM, partner dose 1 µM) | 73.8 | 52.7 | 197 | 93.1 | 147 | 158 | 140 | 98.1 | 440 | 121 | 120 | 156 | 115 | 90 | 92.7 | 136 |
| Clc1ccc(Nc2nnc(Cc3ccncc3)c3ccccc23)cc1 [vatalanib] + C/C(O)=C(\C#N)C(=O)Nc1cc(Br)ccc1Br [LFM-A13] (first compound 2 µM, partner dose 2 µM) | 122 | 55.5 | 95.1 | 104 | 214 | 34.8 | 45.9 | 125 | 85.8 | 32 | 171 | 59.3 | 107 | 59.7 | 91.9 | 55 |
| N#CC[C@H](C1CCCC1)n1cc(-c2ncnc3[nH]ccc23)cn1 [ruxolitinib] + O=C(Oc1ccc([N+](=O)[O-])cc1)N1CCC(C(O)(c2ccc3c(c2)OCO3)c2ccc3c(c2)OCO3)CC1 [JZL184] (first compound 1 µM, partner dose 1 µM) | 134 | 88.9 | 86.8 | 98.4 | 98.6 | 155 | 316 | 341 | 38.8 | 71.3 | 52.8 | 53 | 96.4 | 131 | 93 | 20.3 |
| Cn1c(=O)n(-c2ccc(C(C)(C)C#N)cc2)c2c3cc(-c4cnc5ccccc5c4)ccc3ncc21 + C/C(O)=C(\C#N)C(=O)Nc1cc(Br)ccc1Br [LFM-A13] (first compound 0.004 µM, partner dose 2 µM) | 146 | 49.9 | 477 | 60.9 | 363 | 117 | 41.2 | 189 | 67.5 | 327 | 152 | 184 | 193 | 88.4 | 113 | 300 |
| Cn1cc(C2=C(c3cn(C4CCN(Cc5ccccn5)CC4)c4ccccc34)C(=O)NC2=O)c2ccccc21 [Enzastaurin] + COc1cc2c(Oc3ccc4[nH]c(C)cc4c3F)ncnc2cc1OCCCN1CCCC1 [cediranib] (first compound 0.8 µM, partner dose 0.4 µM) | 39.8 | 66.9 | 133 | 74.7 | 109 | 159 | 118 | 109 | 150 | 213 | 120 | 85.2 | 113 | 108 | 93.2 | 157 |
| C[As](C)SC[C@H](NC(=O)CC[C@H](N)C(=O)O)C(=O)NCC(=O)O [Darinaparsin] + Cn1cncc1[C@@](N)(c1ccc(Cl)cc1)c1ccc2c(c1)c(-c1cccc(Cl)c1)cc(=O)n2C [tipifarnib] (first compound 0.4 µM, partner dose 0.01 µM) | 99.7 | 135 | 130 | 47.5 | 231 | 153 | 82.8 | 64.6 | 104 | 64.1 | 186 | 43.7 | 93 | 130 | 105 | 97.5 |
| Cn1cc(C2=C(c3cn(C4CCN(Cc5ccccn5)CC4)c4ccccc34)C(=O)NC2=O)c2ccccc21 [Enzastaurin] + Oc1cc(-c2nc(-c3ccccc3)[nH]c2-c2ccncc2)ccc1Cl [L779450] (first compound 0.8 µM, partner dose 0.2 µM) | 118 | 67.8 | 232 | 106 | 192 | 67.5 | 112 | 62.3 | 75.8 | 128 | 180 | 94 | 87.8 | 85.4 | 85.5 | 118 |
| Cc1cn(-c2cc(NC(=O)c3ccc(C)c(Nc4nccc(-c5cccnc5)n4)c3)cc(C(F)(F)F)c2)cn1 [nilotinib] + Cc1cc(SCc2sc(-c3ccc(C(F)(F)F)c(F)c3)nc2C)ccc1OCC(=O)O [GW0742] (first compound 0.2 µM, partner dose 2 µM) | 131 | 63.1 | 79.4 | 89.4 | 86.6 | 81.4 | 377 | 68.6 | 96 | 67.5 | 80.1 | 125 | 111 | 108 | 102 | 63.1 |
| Cn1cc(C2=C(c3cn(C4CCN(Cc5ccccn5)CC4)c4ccccc34)C(=O)NC2=O)c2ccccc21 [Enzastaurin] + C=CCn1c(=O)c2cnc(Nc3ccc(N4CCN(C)CC4)cc3)nc2n1-c1cccc(C(C)(C)O)n1 [MK1775] (first compound 0.8 µM, partner dose 0.02 µM) | 152 | 94.9 | 99.8 | 130 | 39.6 | 170 | 69.4 | 477 | 61.9 | 34 | 46.7 | 97.8 | 183 | 63.3 | 197 | 94.5 |
| Cn1cc(C2=C(c3cn(C4CCN(Cc5ccccn5)CC4)c4ccccc34)C(=O)NC2=O)c2ccccc21 [Enzastaurin] + Cn1cc(/C=C2\C(=O)Nc3cccnc32)c2ccccc21 [GW441756] (first compound 0.8 µM, partner dose 0.4 µM) | 77.7 | 40.3 | 66.6 | 38 | 187 | 127 | 88.9 | 78.5 | 150 | 169 | 66.6 | 184 | 97.1 | 65.5 | 100 | 114 |
| N.N.[Cl][Pt][Cl] [cisplatin] + C/C(O)=C(\C#N)C(=O)Nc1cc(Br)ccc1Br [LFM-A13] (first compound 1.6 µM, partner dose 2 µM) | 162 | 49.4 | 423 | 23.2 | 120 | 123 | 42.3 | 82.8 | 143 | 81.7 | 196 | 109 | 91.8 | 89 | 112 | 208 |
| CCCCCCCCCCCCCCCCCCOP(=O)([O-])OC1CC[N+](C)(C)CC1 [Perifosine] + O=C(Oc1ccc([N+](=O)[O-])cc1)N1CCC(C(O)(c2ccc3c(c2)OCO3)c2ccc3c(c2)OCO3)CC1 [JZL184] (first compound 0.4 µM, partner dose 1 µM) | 39.8 | 64.5 | 78.8 | 90.8 | 182 | 78 | 16.2 | 73.4 | 11.4 | 81 | 97.8 | 91.5 | 72.6 | 316 | 67.6 | 66.2 |
| N.N.[Cl][Pt][Cl] [cisplatin] + O=C(Nc1ccccc1)c1cc([N+](=O)[O-])ccc1Cl [GW9662] (first compound 1.6 µM, partner dose 2 µM) | 225 | 199 | 73.8 | 88.3 | 153 | 82.9 | 84.3 | 177 | 115 | 264 | 46 | 229 | 88.9 | 331 | 100 | 21.1 |
| Cn1cc(C2=C(c3cn(C4CCN(Cc5ccccn5)CC4)c4ccccc34)C(=O)NC2=O)c2ccccc21 [Enzastaurin] + CC1(C)NC(=O)N(c2ccc([N+](=O)[O-])c(C(F)(F)F)c2)C1=O [nilutamide] (first compound 0.8 µM, partner dose 1 µM) | 48.5 | 55.7 | 114 | 49.5 | 111 | 194 | 65.1 | 81.3 | 192 | 96.8 | 50.8 | 58.7 | 113 | 55.9 | 100 | 229 |

Random excerpt: two entries already listed.

| Compound | cleaved PARP positive nuclei fraction [1] [%] | cleaved PARP positive nuclei fraction [2] [%] | cleaved PARP positive nuclei fraction [3] [%] | cleaved PARP positive nuclei fraction [4] [%] | cleaved PARP positive nuclei fraction [5] [%] | cleaved PARP positive nuclei fraction [6] [%] | cleaved PARP positive nuclei fraction [7] [%] | cleaved PARP positive nuclei fraction [8] [%] | cleaved PARP positive nuclei fraction [9] [%] | cleaved PARP positive nuclei fraction [10] [%] | cleaved PARP positive nuclei fraction [11] [%] | cleaved PARP positive nuclei fraction [12] [%] | cleaved PARP positive nuclei fraction [13] [%] | cleaved PARP positive nuclei fraction [14] [%] | cleaved PARP positive nuclei fraction [15] [%] | cleaved PARP positive nuclei fraction [16] [%] |
| --- | --- | --- | --- | --- | --- | --- | --- | --- | --- | --- | --- | --- | --- | --- | --- | --- |
| N.N.[Cl][Pt][Cl] [cisplatin] + O=C(Nc1ccccc1)c1cc([N+](=O)[O-])ccc1Cl [GW9662] (first compound 1.6 µM, partner dose 2 µM) | 225 | 199 | 73.8 | 88.3 | 153 | 82.9 | 84.3 | 177 | 115 | 264 | 46 | 229 | 88.9 | 331 | 100 | 21.1 |
| CN1CCN(c2ccc3nc(-c4c(N)c5c(F)cccc5[nH]c4=O)[nH]c3c2)CC1 [Dovitinib] + O=C(Oc1ccc([N+](=O)[O-])cc1)N1CCC(C(O)(c2ccc3c(c2)OCO3)c2ccc3c(c2)OCO3)CC1 [JZL184] (first compound 0.1 µM, partner dose 1 µM) | 73.8 | 52.7 | 197 | 93.1 | 147 | 158 | 140 | 98.1 | 440 | 121 | 120 | 156 | 115 | 90 | 92.7 | 136 |
